Reference: publication PMC4759862
Results are given in words; binding and its absence hold for the method and conditions named. Binding seen in cells or lysates may run through a third protein. Some binding calls cover weakened binding; strength is not graded here.

Key:
[1] = biological target: T1, meprin β (UniProt Q16820); experiment: condition: only lysates of separately transfected cells mixed post-lysis; co-IP; control: lysates of cells separately expressing APP (L1) or meprin β (L2) mixed post-lysis, then precipitated with 9E10 or anti-meprin β antibody
T1 sequence: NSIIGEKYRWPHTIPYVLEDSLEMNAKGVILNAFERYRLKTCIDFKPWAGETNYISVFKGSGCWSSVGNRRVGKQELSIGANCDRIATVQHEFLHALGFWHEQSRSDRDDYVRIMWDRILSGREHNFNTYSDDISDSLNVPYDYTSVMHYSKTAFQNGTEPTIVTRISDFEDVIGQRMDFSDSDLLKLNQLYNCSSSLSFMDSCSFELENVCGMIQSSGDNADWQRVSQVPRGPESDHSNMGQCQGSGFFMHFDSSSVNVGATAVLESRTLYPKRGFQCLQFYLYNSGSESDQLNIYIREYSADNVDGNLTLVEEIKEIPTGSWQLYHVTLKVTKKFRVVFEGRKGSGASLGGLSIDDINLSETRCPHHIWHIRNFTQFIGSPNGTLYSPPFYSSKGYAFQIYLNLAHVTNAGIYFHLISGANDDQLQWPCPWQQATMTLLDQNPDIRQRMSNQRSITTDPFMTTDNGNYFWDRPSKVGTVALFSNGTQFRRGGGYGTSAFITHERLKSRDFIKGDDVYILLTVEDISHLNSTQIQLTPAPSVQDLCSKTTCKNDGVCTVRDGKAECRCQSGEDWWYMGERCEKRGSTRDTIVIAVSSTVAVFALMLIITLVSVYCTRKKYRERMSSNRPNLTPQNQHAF

[2] = biological target: T1, meprin β; experiment: co-IP; HEK-293T cells co-transfected with meprin β and APP695myc; NP-40 lysis buffer; 200 μg lysate with protein G sepharose and 9E10 (anti-myc) or polyclonal anti-meprin β antibody over night; Western blot

APP695myc (myc-tagged amyloid precursor protein, APP695) (from UniProt P05067-4 18-695)
binding [1]: no binding
binding [2]: binds
